Here are results for 62 molecules from PubChem BioAssay AID493014 (National Center for Advancing Translational Sciences (NCATS), 2011).

The other results are listed elsewhere or left out. These are further read-outs of the screen, such as a control signal, another cell line or another target. No call is given for them. The list favours compounds with an active or inconclusive main result. Potencies come from curve fits of mixed quality, noted in brackets.

A short description of this assay: qHTS Assay to Find Inhibitors of Chronic Active B-Cell Receptor Signaling. Conditions: ABC-DLBCL IkBa-CBG/CBR reporter, luminescence ratio (green luciferase fused to IkBa over red control in TMD8 lymphoma cells), 4 h. In short, it runs like this: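 Concentration-response series (up to 46 uM) were applied to TMD8 dual-reporter cells for 4 h at 37C with doxycycline. Green/red ratio, after filter-overlap correction, defined %Activity; red signal alone was normalised to basal cells and zero luminescence.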
In general terms: Quantitative high-throughput screening tests each substance at several concentrations.

Where [1] appears, read: measured here: CBR red luminescence, cell number.
The mark [2] stands for this setting: measured here: IkBa-CBG green luminescence.

Usually AC50 stands for the concentration at which the activity in the assay is half-maximal. Turning to `CC(=O)Nc1cccc(NC(=O)CSc2ncc(-c3ccccc3)[nH]2)c1`, under setting [1], the half-maximal activity concentration (AC50) was 11.2 µM [rising, partial curve]. Consider `CCOc1ccc(C(=O)Nc2c(C(N)=O)oc3ccccc23)cc1`, for which the AC50 under setting [1] is 0.092 µM [falling, full curve]. The same measure, in the same setting: the result for `CCN(CC(=O)Nc1c(F)cccc1F)C(=O)c1cc2ccccc2oc1=O` reads 7.31 µM [rising, partial curve]. In the case of `Cc1cc2c(cc1C)CSC(c1c(O)ccc3ccccc13)SC2`, the concentration at half-maximal activity (AC50) under setting [1] was 29.1 µM [rising, single point].

For the molecule `CCCn1c(=O)c2[nH]cnc2n(-c2ccccc2C)c1=O`, the AC50 under setting [1] was 1.12 µM [rising, full curve, poor fit]. Still for that read-out and setting: under `CCCCc1nccn1CCn1ccnc1CCCC` stands 3.26 µM [falling, partial curve, poor fit]. Still for that read-out and setting: under `CCN(CC)c1nc2ccccc2nc1C(C#N)C(=O)NCCCOC` (centres undefined) stands 0.231 µM [falling, partial curve, poor fit]; under `Nn1c(SCc2ccccc2)nc2c(cnn2-c2ccccc2)c1=O`, 2.82 µM [rising, partial curve, poor fit]. `COc1cc(C(=O)Sc2ccc(C)cc2)cc(OC)c1OC`: the AC50 under setting [1] was 2.82 µM [falling, partial curve, poor fit]. Consider `Cc1ccc(S(=O)(=O)N2CCN(Cc3cc(=O)n4ccccc4n3)CC2)cc1C`, for which the AC50 under setting [1] is 0.58 µM [rising, full curve].

Consider `COc1ccc(-c2noc(CCCCC(=O)N3CCN(c4cc(C)ccc4C)CC3)n2)cc1`, for which the AC50 under setting [1] was 29.1 µM [falling, single point].

In the case of `O=C(Nc1ccc(S(=O)(=O)N2CCCC2)cc1)C1CCCCC1`, under setting [1], the AC50 was 5.01 µM [rising, full curve]. `CCOC(=O)C1=C(O)C(=O)N(c2ccc(S(N)(=O)=O)cc2)C1c1ccc([N+](=O)[O-])cc1` (centres undefined): the AC50 under setting [1] was 0.708 µM [rising, full curve, poor fit]. On the same count and under the same terms, the result for `COc1ccc(OC)c(/C=N/n2c(-c3n[nH]c4c3CCC4)n[nH]c2=S)c1` reads 3.55 µM [falling, single point]. Take `O=c1c2ccccc2nc(COc2ccccc2)n1/N=C/c1c[nH]c2ccccc12`: the half-maximal activity concentration (AC50) under setting [1] is 11.6 µM [falling, partial curve]. Same read-out and setting: the result for `CCC(C(=O)OCC(=O)Nc1ccc(C)c(S(=O)(=O)N2CCOCC2)c1)c1ccccc1` (centres undefined) reads 0.58 µM [falling, full curve, poor fit]. Same read-out and setting: the result for `Cc1ccc(NC(=O)COC(=O)c2cccc3c2C(=O)c2ccccc2C3=O)c(C)c1` reads 18.4 µM [rising, partial curve, poor fit]. For `CN(CC(=O)Nc1ccc2c(c1)OCCO2)Cc1nc2ccccc2c(=O)[nH]1`, the AC50 under setting [2] was 23.1 µM [falling, partial curve, poor fit]. `Cc1ccc(CSc2nnc(SCC(=O)N/N=C/c3ccccc3OCC(=O)O)s2)cc1`: the AC50 under setting [1] is 8.91 µM [falling, partial curve]. In the case of `CCOC(=O)C1CCCCN1S(=O)(=O)c1ccc2c(c1)CC(C)N2C(=O)C1CCC1` (centres undefined), the AC50 under setting [1] is 4.47 µM [rising, single point]. Regarding `Cc1cccc(Cc2c(C)nc3c(C(=O)NCc4ccco4)cnn3c2C)c1`, the AC50 under setting [1] is 10 µM [falling, partial curve]. For `O=C1c2ccccc2C(=O)C12OC2c1cccc2ccccc12` (centres undefined), the AC50 under setting [1] was 29.1 µM [rising, single point] and the AC50 under setting [2] was 25.9 µM [falling, single point]. With `CCOC(=O)c1cc2cc3ccccc3cc2[nH]1`, under setting [1], the AC50 was 17.8 µM [falling, single point]. On the same count and under the same terms, under `COC(=O)c1ccc(COc2ccccc2/C=N/Nc2cccc(C(=O)O)c2)cc1` stands 22.4 µM [falling, single point]; under `CSc1nc(N)nc(C(C)C)n1`, 14.1 µM [rising, partial curve, poor fit].

For `O=[N+]([O-])c1ccc(Nc2nc(NCCO)nc(N3CCCC3)n2)cc1`, under setting [1], the AC50 was 35.5 µM [falling, single point].

With `N#C/C(=C\c1ccc(O)c(O)c1)C(=O)Nc1ccccc1`, under setting [1], the AC50 is 18.4 µM [falling, single point]. As to `Cc1ccccc1NC(=O)COc1nsnc1N1CCOCC1`, under setting [1], the AC50 was 7.08 µM [falling, partial curve].

For the molecule `O=C(Cc1c[nH]c2ccccc12)N1CCc2ccccc21`, under setting [1], the AC50 was 1.46 µM [falling, partial curve, poor fit]. On the same count and under the same terms, under `Brc1ccccc1OCCCCCN1CCOCC1` stands 2.51 µM [rising, partial curve, poor fit]; under `Cc1ccc(C)c(NC(=O)CSc2nnc(-c3ccncc3)o2)c1`, 11.2 µM [falling, partial curve, poor fit]. On to `COc1ccc(CCNc2nnc(Sc3nnnn3-c3ccccc3)s2)cc1OC`, for which the AC50 reads like this: under setting [1], 14.6 µM [falling, partial curve]; under setting [2], 8.2 µM [falling, partial curve]. Consider `Cc1cc(C(=O)c2cnc(/N=C/N(C)C)s2)c(F)cc1Cl`, for which, under setting [1], the half-maximal activity concentration (AC50) was 1.26 µM [falling, single point]. For `CC(C)CN(C(=O)c1ccco1)c1nc2ccccc2s1`, the AC50 under setting [1] is 35.5 µM [rising, single point]. As to `O=[N+]([O-])c1ccc(N2CCN(C(=S)c3cccc([N+](=O)[O-])c3)CC2)cc1`, the AC50 under setting [1] was 12.6 µM [rising, single point]. Consider `CCn1c(SCC(=O)Nc2nccc(C)n2)nc2ccccc21`, for which, under setting [1], the AC50 was 35.5 µM [falling, single point]. Still for that read-out and setting: the result for `Cc1cc(N2CCN(c3ccc(F)cc3)CC2)n2ncnc2n1` reads 15.8 µM [falling, single point]. Turning to `Oc1ccc(-c2csc(-c3ccccc3)n2)cc1O`, the AC50 under setting [1] is 2.51 µM [rising, partial curve].

Take `Cc1ccccc1OCC(=O)Nc1sc2c(c1C#N)CCC2`: the AC50 under setting [1] was 13 µM [rising, partial curve].

Regarding `COc1ccc(CCCC(=O)O)c(C)c1`, under setting [1], the AC50 is 3.16 µM [falling, partial curve, poor fit]. As to `CN1C(=O)NC(c2ccccc2)(C(F)(F)F)S/C1=C(/C#N)c1nnc(N2CCOCC2)n1-c1ccccc1` (centres undefined), the AC50 reads like this: under setting [1], 13 µM [falling, partial curve]; under setting [2], 20.6 µM [rising, partial curve, poor fit].

For `COc1ccc(CN2CCCCCC2)c(C)c1C`, the AC50 under setting [1] is 29.1 µM [rising, single point]. Regarding `O=c1oc2cc(OCc3ccc(F)cc3F)ccc2cc1-c1ccc2ccccc2n1`, the AC50 under setting [1] is 29.1 µM [rising, partial curve, poor fit]. `C/C(=N\Nc1ncc(Cl)cc1Cl)c1ccc(OC(F)F)cc1`: the AC50 was 1.64 µM [rising, full curve, poor fit] under setting [1] and 29.1 µM [falling, single point] under setting [2]. As for `CCc1cc2c(SCC(=O)Nc3ccc(NC(C)=O)cc3)ncnc2s1`, the AC50 reads like this: under setting [1], 29.1 µM [rising, single point]; under setting [2], 23.1 µM [falling, partial curve, poor fit].

Turning to `COc1ccccc1-c1cn[nH]c(=S)n1`, the AC50 under setting [1] is 10.3 µM [falling, partial curve].

With `Cc1ccc2sc(N(CCCN(C)C)C(=O)c3ccc(S(=O)(=O)N(C)C4CCCCC4)cc3)nc2c1C`, the AC50 under setting [1] is 29.1 µM [falling, single point].

As for `Cc1ccccc1Nc1nc(N)nc(COC(=O)c2cccc(S(=O)(=O)N(C)C)c2)n1`, the AC50 reads like this: under setting [1], 20.6 µM [rising, partial curve]; under setting [2], 16.4 µM [falling, partial curve, poor fit].

Regarding `CN(C)CCCn1c(=O)n(Cc2ccccc2)c(=O)c2c3c(sc21)CCCCC3`, the AC50 under setting [1] was 8.91 µM [falling, partial curve, poor fit]. Same read-out and setting: the result for `COc1ccc(Nc2ccncc2[N+](=O)[O-])cc1` reads 2.82 µM [falling, full curve, poor fit].

Turning to `O=C(Nc1ccc([N+](=O)[O-])cc1)C1CC12CCC2` (centres undefined), the AC50 under setting [1] was 35.5 µM [falling, single point]. The same measure, in the same setting: the result for `COC(=O)c1sccc1NC(=O)Nc1ccc(C)c(C)c1` reads 0.794 µM [falling, full curve]; that for `Cc1ccnc(SCc2cc(=O)c(OC(=O)c3cc([N+](=O)[O-])ccc3Cl)co2)n1`, 29.1 µM [rising, single point]. Same read-out and setting: under `COc1ccc2oc(C(=O)NC3CCCCC3)c(C)c2c1` stands 12.6 µM [falling, partial curve].

On to `CCc1ccc2oc(-c3cc(N)ccc3Cl)nc2c1`, for which the AC50 by setting is: under setting [1], 16.4 µM [falling, partial curve, poor fit]; under setting [2], 16.4 µM [falling, partial curve, poor fit]. Take `C=CCn1c(SCC(=O)NCCOC)nc2scc(-c3ccco3)c2c1=O`: under setting [1], the AC50 was 3.55 µM [falling, single point]. For the molecule `O=C(CCc1ccccc1Cl)Nc1cccc(S(=O)(=O)N2CCCC2)c1`, under setting [1], the AC50 was 31.6 µM [falling, single point]. Same read-out and setting: the result for `COC/C=C/C1=CC2=CC(=O)C(C)(OC(=O)c3cnc4ccccc4n3)C(=O)C2=CN1C(CO)CO` (centres undefined) reads 12.6 µM [rising, partial curve, poor fit].

For `Cc1cc(C)c2c3c(sc2n1)C(=O)N(C)CC(=O)N3`, the AC50 under setting [1] is 25.1 µM [rising, single point]. The same measure, in the same setting: under `COC(=O)c1nn(-c2ccccc2)c(Sc2ccc(Cl)cc2)c1/C=N/O` stands 22.4 µM [falling, single point]; under `Cc1ccc(-c2nc(Nc3ccccc3)n[nH]2)cc1`, 2.91 µM [falling, partial curve, poor fit]; under `COc1cc(CO)cc(Br)c1OCc1cccnc1`, 11.2 µM [rising, partial curve, poor fit].
